According to the supplement of paper PMC4683952:
The list shows a part of the results. No stated cut-off is given here; in the data, active = 2 or more and inactive = the rest. Repeats in this data set agree poorly, so a single value says little.

Test system: Lgr5 (MarsCy1-Lgr5-EGFP, U2OS)
Test: cell-surface Lgr5 expression (SCi1 fluorescence, background-subtracted) relative to WT DMSO (fold of DMSO control); higher = more Lgr5 at the plasma membrane
Conditions: U2OS MarsCy1-Lgr5-EGFP stable; treatment time: overnight; library: ActiProbe-5K (TimTec); 25 µM

cell-surface Lgr5 expression, inactive:
CC(/C=C/c1ccccc1)=N\Nc1n[nH]c(=S)[nH]1 1.08
C1CCCN(c2nc3nonc3nc2N2CCCCCC2)CC1 1.07
N=C1SCC(=O)N1c1nonc1N 1.21
CCOC(=O)/C=C(/C)Nc1nonc1N(C(C)=O)C1CCCCC1 1.16
O=C(O)C1CSC(c2cccs2)N1 (centres undefined) 0.973
Cc1nn(CCc2nn[nH]n2)c(C)c1Cl 1.18
CC(C)CN(CC(C)C)C(=S)NC1CCCCC1 1.17
Cn1nc([N+](=O)[O-])nc1Oc1ccc2c(c1)OCO2 1.36
CCCCNC(=O)N1CCNC1=O 1.17
Nc1nonc1-c1noc(-c2ccc(Br)o2)n1 1.1
Nc1cc2c(cc1Cl)OCO2 1.04
C=CCCNS(=O)(=O)c1ccc(Cl)cc1 1.01
C1=C(C2CCNc3c2ccc2cccnc32)CCCC1 (centres undefined) 1.09
COCCCNc1ncnc2ccc(Br)cc12 0.402
CS(=O)(=O)Nc1ccc(Cl)c(C(F)(F)F)c1 1.06
CN1CCc2c(sc(N)c2C#N)C1 1.16
N=C1NC(c2ccc(Cl)cc2)=CC(c2ccc(F)cc2)S1 (centres undefined) 0.773
CCSc1sc(CC)cc1C(C)=O 1.09
Nc1nc2c(nc(N/N=C3/C(=O)Nc4ccccc43)n2C2OC(CO)C(O)C2O)c(=O)[nH]1 (centres undefined) 1.11
S=C1NC(C23CC4CC(CC(C4)C2)C3)=CC(c2ccc(Br)cc2)N1 (centres undefined) 0.83
CCCCN(CCCC)S(=O)(=O)c1ncn[nH]1 1
C(=N/c1c2ccccc2nc2ccccc12)/c1ccc2c(c1)OCO2 0.265
Cc1sc2nc3n(c(=O)c2c1C)CCCCC3 1.09
CC(=O)OC[C@H]1O[C@@H](n2cc(C)c(=O)[nH]c2=O)C[C@@H]1OC(C)=O 1.1
NC(=O)c1c(NC(=O)/C=C\C(=O)O)sc2c1CCC2 1.3
CSc1ncc(C#N)c(N)n1 1.09
Cc1n[n+]2c(Br)c(C)[n-]n2c1Br 1.11
O=S(=O)(c1ccc(Cl)s1)N1CCCCC1 1.19
O=S1(=O)OC(c2ccc(O)cc2)(c2ccc(O)cc2)c2ccccc21 1.2
N#Cc1cnn2cc([N+](=O)[O-])cnc12 1.24
Cc1cccc(-c2nnc3n2CC(C)S3)c1 (centres undefined) 1.05
N#Cc1c(N)sc2c1CCC2 1.23
N#C/C(=C1\CCCCN1)c1nnc2n1CCCCC2 0.978
O=C(Cc1n[nH]c(=O)[nH]c1=O)N/N=C/c1cc(=O)[nH]c(=O)[nH]1 1.58
Nc1ccc2[nH]c3c(c2c1)CCCC3 1.35
NC#Cc1cnn(-c2ccccc2)n1 1.21
c1ccc2c(c1)OCCOCCOCCO2 1.41
CCOCc1cnc(C)nc1N 1.28
Cc1cc(-c2cc(O)[nH]n2)n(C)n1 1.01
c1ccc(-c2nnc(-c3ccco3)c(-c3ccco3)n2)nc1 0.919
c1ccc(C2=NNC(c3nc4ccccc4[nH]3)C2)cc1 (centres undefined) 0.549
Cn1cccc1/C=N\NC(=O)CCCCCCCC(=O)N/N=C/c1cccn1C 0.914
Clc1cc(-n2cnnn2)ccc1Oc1cccnc1 1.03
C=C(C)C1CCC(C)C(OC(C)=O)C1 (centres undefined) 1.46
Cc1cc(C)c2c(=O)nc(SCc3cc(=O)n4ccccc4n3)n(C3CC3)c2n1 1.07
COc1ccc(-c2nnc(N3CCCC3)o2)cc1OC 1.01
Oc1c(Cl)cc(Cl)cc1/C=N/c1nccs1 1.66
Cc1[nH]nc2c1C1(CC[C@H]3CO[C@@H]1O3)C(C#N)=C(N)O2 (some centres undefined) 0.958
CC(C)(C)CC(=O)Nc1nnc(CC(C)(C)C)s1 1.31
Fc1cccc(/C=N/N2CCN(C3c4ccccc4-c4ccccc43)CC2)c1 1.01
COc1ccc(C2CC(c3cc(OC)cc(OC)c3)=NC(=N)N2)cc1 (centres undefined) 1.37
C(S\C(=C(\C#N)C#N)NCC=C)c1ccncc1 1.11
CC1(C)CC2CC(C)(CN2c2ncnc3ccc(Br)cc23)C1 (centres undefined) 0.586
CCn1cc(/C=C\C(=O)c2ccc(C)o2)cn1 1.32
COc1cc2nc(SCc3nc4ccccc4n3C)[nH]c2cc1OC 1.31
C=CC[C@H]1CC(C)=C[C@@H](CC=C)N1C(C)=O 1.05
N/C(=N/N=C/c1cccn1-c1ccc(S(N)(=O)=O)cc1)c1nonc1N 1.14
Brc1ccc(N/N=N\c2ccccc2)cc1 1.01
O=C1CCCCc2sccc2N1 1.17
CSCCC(C(=O)O)N1C(=O)/C(=C2/C(=O)Nc3ccc(Br)cc32)SC1=S (centres undefined) 1.23
COc1ccc(C2Sc3ccccc3N=C3C2=C(O)c2ccccc23)cc1OC (centres undefined) 1.15
O=[N+]([O-])c1ccc2c(c1)OC1(CCCC1)O2 0.986
Cc1sc(/C=C(/C#N)C(N)=S)cc1Br 1.56
Nn1c(CO)nnc1SCc1cc(Cl)cc2c1OCOC2 0.968
CN(C)S(=O)(=O)NC1CCCCCC1 1.09
Cc1ccc(C2C(C#N)=C(N)Oc3[nH]nc(C)c32)s1 (centres undefined) 1.04
Cc1ccc(/C=N/n2nnnc2N)s1 0.982
N[C@@H]1c2ccccc2C[C@@H]1O 1.21
C/N=c1\sc(C(=O)OC)cc(=O)n1C 1.02
COc1ccc(C=O)cc1CSC1=NCCS1 1.48
Cn1c(=O)oc2ccc(S(=O)(=O)Nc3ccc4c(c3)n(C)c(=O)n4C)cc21 1.15
Cn1nnnc1SCC(=O)NC(C)(C)C 1.33
Cn1c(SC2CCOC2=O)nc2ccccc2c1=O (centres undefined) 1.42
O=C(O)c1c2c(nc3c1cnn3C1CCCC1)CCC2 1.05
Clc1ccc(Nc2ccc(-n3ccnc3)nn2)cc1 1
NCC(O)CN1CCOCC1 (centres undefined) 1.38
c1ccc(-n2c(SCc3nc4ccccc4[nH]3)nc3ccccc32)cc1 1.3
c1ccc(C(Sc2nc3ccccc3s2)c2ccccc2)cc1 1.08
CCn1cc(-c2cc[nH]n2)c(C)n1 1.05
N#C/C(=C\c1ccc(Br)s1)C(N)=S 1.04
O=[N+]([O-])c1ccc2[nH]c(C(F)(F)F)nc2c1 1.07
O=S(=O)(NC12CC3CC(CC(C3)C1)C2)c1cccs1 1.24
CNc1nc(C(N)=O)c(NC(=O)C23CC4CC(CC(C4)C2)C3)s1 1.43
O=S1(=O)N=C(OCc2ccccc2)c2ccccc21 1.12
CCCCc1ccc(C2=C(C#N)C(N)=C(C#N)C3=CCCCC32)s1 (centres undefined) 1.45
C=CCNS(=O)(=O)c1cc(S(=O)(=O)NCC=C)c(OC)cc1OC 1.16
CC(C)(C)c1ccc(CSc2nsc(SCc3ccc(C(C)(C)C)cc3)c2C#N)cc1 1.13
CN(CCC#N)S(=O)(=O)c1ccc2sc(=O)[nH]c2c1 1.07
NC(=O)c1c(N)sc2c1C1CCN2CC1 1.28
NC(=O)Cn1cc([N+](=O)[O-])nc1Cl 1.1
O=[N+]([O-])c1coc2c(Cl)c(Cl)c(O)cc12 1.14
O=C(N/N=C/c1ccc[nH]1)c1ccc(C(=O)N/N=C/c2ccc[nH]2)o1 1.41
O=[N+]([O-])c1ccc(Cl)c(N2CCCC2)c1 1.13
N#Cc1c(C(F)(F)F)cc(-c2cccs2)oc1=S 1.35
Brc1ccc(-c2nn3c(-c4ccccn4)nnc3s2)o1 1.03
C1CN(C2CCC3SC2CCC3N2CCOCC2)CCO1 (centres undefined) 1.12
CC(=O)CC(=O)N1CCOCC1 1.27
COC(=O)CCCC[C@@H]1SC[C@@H](N)[C@H]1O 1.1
Cn1c(=O)oc2ccc(S(=O)(=O)Nc3ccc4c(c3)CCN4S(C)(=O)=O)cc21 1.02
C=CCn1c(N)c(C(N)=O)sc1=S 0.939
CNC(=S)Nc1ccc(Br)cc1 1.73
O=C1CCC(C(=O)NCC23CC4CC(CC(C4)C2)C3)N1 (centres undefined) 1.16
COc1cc(C2SCCS2)cc([N+](=O)[O-])c1O 1.11
CC(C)(C)CC(=O)NC(=S)N(C1CCCCC1)C1CCCCC1 0.968
C=C(C)C[C@@H]1Cc2c(Br)cccc2[C@@H](CC(=C)C)N1.Cl 1.23
Nc1cc(O)cc([N+](=O)[O-])c1 0.538
CC(C)C(O)(C(=O)OC[C@@H]1CCN2CCC[C@@H]12)C(C)O (some centres undefined) 1.21
N#C/C(=C/Sc1ccccc1F)C(=N)N 1.14
CC1(C)SCC(C(=O)O)N1C=O (centres undefined) 0.864

By substructure, the entries above with a CF3 group
cell-surface Lgr5 expression, inactive:
CS(=O)(=O)Nc1ccc(Cl)c(C(F)(F)F)c1 1.06
O=[N+]([O-])c1ccc2[nH]c(C(F)(F)F)nc2c1 1.07
N#Cc1c(C(F)(F)F)cc(-c2cccs2)oc1=S 1.35

Arranged by formula weight (rising): part of the list above
cell-surface Lgr5 expression, inactive:
NCC(O)CN1CCOCC1 (centres undefined) 1.38
C/N=c1\sc(C(=O)OC)cc(=O)n1C 1.02
Cc1[nH]nc2c1C1(CC[C@H]3CO[C@@H]1O3)C(C#N)=C(N)O2 (some centres undefined) 0.958
